Reference: PubChem BioAssay AID1347426 (Functional Genomics Laboratory (NCATS/FGL), 2020)
About 1,400 (4.5%) of roughly 31,000 sequences were called active.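 Rule for the calls: active = median seed-adjusted z-score above 1 or below -1; inactive = the rest.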 This is one part of the list.

test: Novel Modifiers of Survival Motor Neuron (SMN) Protein: Gene Identification via Genome-wide siRNA Screen; settings: HEK293T SMN2-luciferase reporter, siRNA knockdown, 72 h; actives lie on both sides;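 note: luminescence tracks full-length SMN protein made from the SMN2 reporter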
Procedure, shortened: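 Luciferase signal, proportional to full-length SMN made from an SMN2 cDNA reporter in stable HEK293T cells, was read 72 h after siRNA reverse transfection. Values were expressed as MAD scores after non-targeting-control normalization and log10 conversion; seed analysis flagged off-targets.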

| Sequence | median seed-adjusted z-score |
| --- | --- |
| CGAUAUCAAGUGCACCAAATT against CAD | active: 2.37 |
| GCAUCACCAUUGCUUGGAATT against STAT5B | inactive: 0 |
| CCGCGACAAGCAUAACGAATT against B4GALT2 | inactive: -0.0367 |
| GGGUUACCCUGGUCAUUAATT against ZNHIT2 | inactive: -0.339 |
| GCCUAGGAGUUAUCCUCUATT against MARK2 | inactive: 0.664 |
| AGUUACCUACGUCAACCUATT against LRIT1 | inactive: -0.611 |
| AGCUAGUACUAAUGAAUUUTT against KCNC2 | inactive: 0.3 |
| GCAAAGAUGUUGAGAAGGATT against ZNF549 | inactive: 0.0114 |
| GGAUUGGGCUAAGAAGUAUTT against CYP46A1 | inactive: -0.00752 |
| GGGUUAUAGAUCAAAAGAATT against OLA1 | inactive: -0.408 |
| GUAGGACCCUAAUAUCGAUTT against TEP1 | inactive: -0.495 |
| GGACAUGCAGCAGACCUAUTT against ZC3H7B | inactive: -0.093 |
| AGAUAAAUGCCGACCCACATT against CDK5R1 | inactive: 0.373 |
| CAGUACUACGUGAAACUGATT against BAT1 | active: -1.49 |
| ACGGCGACUUUGUCAGGUATT against SOLH | inactive: -0.791 |
| CGAGCGCGUAUUAACGAGATT against HES4 | inactive: 0.705 |
| CGACCGCUGUAAGGAGGUATT against MAP1LC3A | inactive: 0 |
| GUAACAAAAUUGAUCUGGATT against RIT2 | inactive: 0.253 |
| GGCUGAUUACGUUCGGGAATT against MYL2 | inactive: -0.0369 |
| GAACUGUGCCUAUUCCGAATT against LIG3 | inactive: -0.0498 |
| GGCUAACCAGCGAAAUAUATT against DNMT3L | inactive: 0.0651 |
| GCUUCCACGUGUUCGACCATT against HSF1 | inactive: 0 |

| Sequence | median seed-adjusted z-score |
| --- | --- |
| CCUAUUCACUUCUCAUGCATT against FCGR2B | inactive: -0.163 |
| GCAAAGCUGCUGAGUAAUATT against TIPIN | inactive: 0 |
| GGAAAGUUCGAUUACAACATT against ACOT12 | inactive: 0.0741 |
| CCAUAAUGCUACAAACUCUTT against CCNT2 | inactive: -0.836 |
| GGGCAAAUAGAUUCGAGUATT against SMARCA5 | inactive: -0.0804 |
| CCCUUACACCAAUACCGCATT against IMP4 | inactive: -0.359 |
| GACUGUCACUCAACGAAGATT against DNAJB9 | inactive: 0.0962 |
| GGAAGCAACUUCCAUAAAATT against QTRTD1 | inactive: 0.377 |
| CCUAUGACGUGAACAGAGATT against ITIH3 | inactive: 0 |
| GGCCCUUCAUCGAUAGCUATT against APEX2 | inactive: -0.347 |
| GCAUAGAUAGCACCGUGAATT against SLC20A1 | inactive: -0.186 |
| CGCUCAUGGACUUCGCCUATT against ZBTB7A | inactive: -0.344 |
| CGAGCUCAUGAAUAGAGUUTT against ANGPTL5 | inactive: 0 |
| CCCUAUUGAUGGACAAGUUTT against ZSWIM2 | inactive: -0.199 |
| GGAUGCCCUUUUCAUCGAATT against PPID | inactive: -0.206 |
| GAUCCGCACGUGAAAACAATT against TCEB3C | inactive: 0.382 |
| CAAAGCGAAUUGAUCUUUATT against GLRB | inactive: 0.0713 |
| GCCUAAACCUCAGCAGAUATT against ETHE1 | inactive: 0 |
| GGCAUUUGGUCGAAGUUCATT against ZNF229 | inactive: -0.497 |
| CCACAGUUCCUGUCAUGUUTT against ACMSD | inactive: 0 |
| GCUAUUGGAUGAACUCCCATT against PHCA | inactive: 0.0568 |
| GGCAGAAUGUUUCGAGCUUTT against LCN10 | inactive: 0 |

| Sequence | median seed-adjusted z-score |
| --- | --- |
| GUGAUUGCUUUAUACCGAATT against USP28 | inactive: 0.275 |
| GCAGAAUUAAGUCAAACAATT against ZBTB37 | inactive: -0.219 |
| CUACGACUAUCGAAGCAUUTT against RPGR | inactive: 0.1 |
| CAUUCGCCGUUACCUGCCATT against POLR2F | active: -3.52 |
| CCAUGGAGCUUUGUGAAGATT against CES1 | inactive: -0.536 |
| GGAUACUAGUAACUGGUCUTT against PARD3 | inactive: -0.116 |
| CUAGUAUAUUCACCGUCUATT against NALCN | inactive: -0.266 |
| CUAUAGUAACUGUCUAGGATT against RCBTB1 | inactive: 0 |
| GGGCCUUAAUUUGUACUGUTT against KLF2 | inactive: 0.359 |
| GACCUUACCUCAGACUAGATT against EXOG | inactive: 0.746 |
| GGAUCCAGGUGAAUGAUCUTT against PPP1R9B | inactive: -0.244 |
| GGACUCCAGCAUUUGCUUATT against SCG5 | inactive: 0.573 |
| CCACACUGUUUUCUACGAATT against TARS2 | inactive: -0.0143 |
| GGCGGUAAACCAGAACUAATT against PCDHA12 | inactive: 0.0761 |
| AGACUUCCGCUACACUUUUTT against ADORA2B | inactive: -0.471 |
| CCGUGAACCCAGAACAGUATT against PIP4K2A | inactive: 0.469 |
| GGAAGAGCUAGAGAAGUUUTT against VPS16 | inactive: 0.306 |
| CCUGGACGAGUUUAUAAUATT against AP1S3 | inactive: 0.153 |
| GCCGCUUUCCUGACGAGAATT against PPIF | inactive: 0.0719 |
| AGCCCAUGAUUAAUUUGUATT against FUS | inactive: 0.92 |
| GCCUUUUGCUGCGCACCAATT against CD151 | inactive: -0.0305 |
| GGUUAAAGUCUGCAACUAATT against USP1 | inactive: -0.564 |

Copied from the list.
median seed-adjusted z-score with CUACGACUAUCGAAGCAUUTT against RPGR is entered as inactive: 0.1
median seed-adjusted z-score with CUAGUAUAUUCACCGUCUATT against NALCN is entered as inactive: -0.266
median seed-adjusted z-score with AGACUUCCGCUACACUUUUTT against ADORA2B is entered as inactive: -0.471
median seed-adjusted z-score with AGCCCAUGAUUAAUUUGUATT against FUS is entered as inactive: 0.92

(list continues)

| Sequence | median seed-adjusted z-score |
| --- | --- |
| UUGUUAACAUGAAAACUCATT against GTPBP8 | inactive: 0.834 |
| CGUGUGAUCCAGAGACUUATT against KRT1 | inactive: -0.362 |
| GUACGUGACUGGUUACAAUTT against FLRT3 | inactive: -0.468 |
| CUCCUGUUUUGGUACCCAATT against FLVCR2 | inactive: -0.336 |
| CGGUGACCAAGAUUACCAATT against MBD3 | inactive: 0.708 |
| GAACCAAUCCAGUCAGGAUTT against PXMP2 | inactive: -0.444 |
| AGAUGAAACUUAUUGAACATT against PHF15 | inactive: 0 |
| GAGUGCAAUUGGAACCUGATT against ARHGAP30 | inactive: 0.0946 |
| GGUGGGCAGUGGUUACAAUTT against KCNA6 | inactive: 0 |
| GAAAGGACGACGUAAUCAATT against ZMYND11 | inactive: -0.032 |
| CUCUCUCAGUAGACGACAATT against AKAP6 | inactive: -0.0978 |
| GAGUUUCGCCUGCUACAGATT against CELSR3 | inactive: 0 |
| ACUGCUGCGUGAUCCAUCATT against ITGB1BP3 | inactive: 0.0514 |
| GGCUAGACACGGGAGAAUATT against PDGFRB | inactive: -0.709 |
| CCAGGACAAAUGUUCGAUUTT against RAB3GAP2 | inactive: 0.0583 |
| GCAUCAGGGUCAUGGUUCATT against SCNN1D | active: -1.8 |
| CACCUUUUCGCGCUCCUACTT against KCNG2 | inactive: 0 |
| CAAGAACACCAUACUGAAATT against IDH2 | inactive: 0.0592 |
| CGACCGCACCUGGAAUGAATT against PLA2G4D | inactive: -0.233 |
| GGAUGGAACUUUACCCUCATT against MKL2 | inactive: -0.863 |
| GGAUGAAGUUUGACGCACATT against PCK1 | inactive: -0.401 |
| GGCUCUACGGUUUCAAGAUTT against CSNK2B | active: -1.62 |

| Sequence | median seed-adjusted z-score |
| --- | --- |
| ACAUCCACAGGUUCACUAATT against NDUFA1 | inactive: 0.182 |
| GAACCGCAGUUGGAAUUCATT against INPP4B | inactive: 0.0722 |
| CUAUGAUUAUUAACGAUGUTT against RHOA | inactive: -0.219 |
| GCCGAUACCUUCACUCGAATT against TAP1 | inactive: -0.506 |
| GGAAGAUCCAAGCUUCGAATT against SLTM | inactive: 0.547 |
| CACCCACCGCCACAAUAAATT against BSG | inactive: 0.211 |
| CAAUGAAGAUAUGUUUAGATT against WBP5 | inactive: 0.452 |
| CAAGAGUCAUUGCACUGGATT against ZNF114 | inactive: -0.303 |
| CAUACACUCUACUCCUGCUTT against CDH26 | inactive: 0 |
| GGACUUUGCCUAUGUCUGUTT against TFAP2C | active: 1.28 |
| CCAUUUGGAUAUCAAAGUATT against ILF2 | inactive: -0.19 |
| CCACCUGAGUAACCCAUAUTT against PBX2 | inactive: 0.253 |
| AGACGUACAUUCCAAAGGATT against ZNF516 | inactive: 0.56 |
| CGAAGUGGCCUGAACCUGUTT against MASP2 | inactive: -0.137 |
| CAGCAUUACAUGAAAGAAATT against FEZF1 | inactive: 0.155 |
| GUACCACCCUGACAAAAAUTT against DNAJB9 | inactive: 0.0962 |
| GAGGCAGUCUUAAAAUGGATT against RAB32 | inactive: -0.112 |
| GAACUAUGGUGCUACUGGATT against ZNF449 | inactive: 0.178 |
| UGGUCUUGCACAUGACUAATT against FZD9 | inactive: -0.0532 |
| GUGUCAGAGUUUAUAUCAATT against PDE4D | inactive: 0 |
